Results are given in words; binding and its absence hold for the method and conditions named. Tags and fused reporters may be left off the sequences shown.
Target: T1, AD-01, peptide derivative of FKBPL
T1 sequence (peptide): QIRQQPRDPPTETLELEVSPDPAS
Experiment: SPR; indirect competitive BIACORE Q assay: AD-01 immobilised on CM5 chip; anti-AD-01 antibody (0.01 µg/ml) mixed with AD-01 in solution (0-1 µM) and immunopurified CD44 or recombinant EGFR; a partner of AD-01 in solution raises the antibody's binding to the chip; mIgG isotype eluate and buffer as controls; both purified

binding: no binding
Substance: recombinant human EGFR (from UniProt P00533 25-645) (receptor)
